Data reported in the supplement of paper PMC6418307.
Single values of this set are uncertain.

Test system: primary mouse cortical neurons
Experiment: cell health score (luciferase spike-in reads / total reads per well) (fraction); higher = fewer cellular reads, worse cell health / toxicity
Conditions: treatment time 24 h
[1] = 0.01 µM, sex of neuron culture: Female
[2] = 0.01 µM, sex of neuron culture: Male
[3] = 0.1 µM, sex of neuron culture: Female
[4] = 0.1 µM, sex of neuron culture: Male
[5] = 1 µM, sex of neuron culture: Female
[6] = 1 µM, sex of neuron culture: Male
[7] = 10 µM, sex of neuron culture: Female
[8] = 10 µM, sex of neuron culture: Male

With `CCC(C)Nc1c([N+](=O)[O-])cc(C(C)(C)C)cc1[N+](=O)[O-]` (configuration not stated) [Butralin] the cell health score [1] was 0.000536, the cell health score [2] was 0.000656 and the cell health score [3] was 0.000699. For the same compound, the cell health score [4] was 0.000802, the cell health score [5] was 0.000762 and the cell health score [6] was 0.000796. For the same compound, the cell health score [7] was 0.00101 and the cell health score [8] was 0.000955.

Work on `O=P(O)(O)CCCl` [Ethephon] yielded a cell health score [1] of 0.000522, a cell health score [2] of 0.000569 and a cell health score [3] of 0.00219. It also gave a cell health score [4] of 0.000874, a cell health score [5] of 0.00098 and a cell health score [6] of 0.000787. It also gave a cell health score [7] of 0.00135 and a cell health score [8] of 0.000503.

Work on `COc1cccc(NCC(F)Cn2c3ccc(Br)cc3c3cc(Br)ccc32)c1` (configuration not stated) [P7C3-A20] yielded a cell health score [1] of 0.000497, a cell health score [2] of 0.000837 and a cell health score [3] of 0.000787. For the same compound, the cell health score [4] was 0.00111, the cell health score [5] was 0.000659 and the cell health score [6] was 0.000409. The cell health score [7] was 0.000931 and the cell health score [8] was 0.00256.

With `N#CSCSc1nc2ccccc2s1` [2-(Thiocyanomethylthio)benzothiazole] the cell health score [1] was 0.000446, the cell health score [2] was 0.000746 and the cell health score [3] was 0.000788. It also gave a cell health score [4] of 0.000732, a cell health score [5] of 0.000804 and a cell health score [6] of 0.000473. It also gave a cell health score [7] of 0.000928 and a cell health score [8] of 0.00032.

`CCNc1nc(N)nc(Cl)n1` [Deisopropylatrazine] was tested, and the cell health score [1] was 0.000617, the cell health score [2] was 0.00117 and the cell health score [3] was 0.000658. The cell health score [4] was 0.000693, the cell health score [5] was 0.000656 and the cell health score [6] was 0.000856. For the same compound, the cell health score [7] was 0.000697 and the cell health score [8] was 0.000561.

`Cn1c(=O)c2c(ncn2C)n(C)c1=O` [Caffeine] showed a cell health score [1] of 0.000613, a cell health score [2] of 0.000693 and a cell health score [3] of 0.000672. It also gave a cell health score [4] of 0.0008, a cell health score [5] of 0.000575 and a cell health score [6] of 0.000484. It also gave a cell health score [7] of 0.000625 and a cell health score [8] of 0.000548.

In the case of `Cc1c(COC(=O)[C@@H]2[C@H](/C=C(\Cl)C(F)(F)F)C2(C)C)cccc1-c1ccccc1` (racemic) [Bifenthrin], the cell health score [1] is reported as 0.000673, the cell health score [2] is reported as 0.000721 and the cell health score [3] is reported as 0.000863. It also gave a cell health score [4] of 0.000702, a cell health score [5] of 0.000833 and a cell health score [6] of 0.00062. It also gave a cell health score [7] of 0.000653 and a cell health score [8] of 0.000559.

`CCN(CC)C(=O)C(C)Oc1cccc2ccccc12` (configuration not stated) [Napropamide] was tested, and the cell health score [1] was 0.000489, the cell health score [2] was 0.00356 and the cell health score [3] was 0.00095. The cell health score [4] was 0.000636, the cell health score [5] was 0.00104 and the cell health score [6] was 0.000626. For the same compound, the cell health score [7] was 0.000672 and the cell health score [8] was 0.000576.

`CNC(=O)/C=C(\C)OP(=O)(OC)OC` [Monocrotophos] showed a cell health score [1] of 0.000538, a cell health score [2] of 0.000795 and a cell health score [3] of 0.000895. It also gave a cell health score [4] of 0.000929, a cell health score [5] of 0.00139 and a cell health score [6] of 0.000593. The cell health score [7] was 0.00132 and the cell health score [8] was 0.000579.

`CSc1nc(NC(C)C)nc(NC(C)C)n1` [Prometryn] gave a cell health score [1] of 0.000671, a cell health score [2] of 0.000702 and a cell health score [3] of 0.000788. It also gave a cell health score [4] of 0.00104, a cell health score [5] of 0.000644 and a cell health score [6] of 0.000602. The cell health score [7] was 0.000699 and the cell health score [8] was 0.000468.

`CC1=NNC(=O)N(/N=C/c2cccnc2)C1` [Pymetrozine] showed a cell health score [1] of 0.000495, a cell health score [2] of 0.00088 and a cell health score [3] of 0.00135. For the same compound, the cell health score [4] was 0.000801, the cell health score [5] was 0.000886 and the cell health score [6] was 0.000764. It also gave a cell health score [7] of 0.00122 and a cell health score [8] of 0.000483.

For `CO/C(=C/C(N)=O)[C@H](C)[C@H](/C=C/c1csc(-c2csc([C@@H](C)/C=C/C=C/C(C)C)n2)n1)OC` [Myxothiazol], the cell health score [1] was 0.00229, the cell health score [2] was 0.000936 and the cell health score [3] was 0.00197. For the same compound, the cell health score [4] was 0.00161, the cell health score [5] was 0.00131 and the cell health score [6] was 0.000947. For the same compound, the cell health score [7] was 0.00258 and the cell health score [8] was 0.00305.

With `CC(C)NC(=O)N1CC(=O)N(c2cc(Cl)cc(Cl)c2)C1=O` [Iprodione] the cell health score [1] was 0.000433, the cell health score [2] was 0.000651 and the cell health score [3] was 0.000758. The cell health score [4] was 0.000798, the cell health score [5] was 0.000948 and the cell health score [6] was 0.000911. The cell health score [7] was 0.000949 and the cell health score [8] was 0.000731.

`CCCN(CCC)c1c([N+](=O)[O-])cc(C(F)(F)F)cc1[N+](=O)[O-]` [Trifluralin] gave a cell health score [1] of 0.00053, a cell health score [2] of 0.000677 and a cell health score [3] of 0.00064. For the same compound, the cell health score [4] was 0.000554, the cell health score [5] was 0.000764 and the cell health score [6] was 0.000509. It also gave a cell health score [7] of 0.000399 and a cell health score [8] of 0.000554.
